PubChem BioAssay AID1259424 | University of Nebraska Medical Center | 2018
Assay: 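Rank knockdowns across the genome by resemblance to the KSR1 depletion profile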 (primary screen). Cells: human HCT116 colon cancer cells. Reagents: siRNA pool against human genes, 50 nM. Read-out: 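Six signature mRNAs by branched-DNA multiplex assay, scaled to two housekeeping genes and non-targeting median, log2; matched to mean KSR1 knockdown profile by Pearson correlation and euclidean distance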. Direction: mean correlation with KSR1 profile: higher = expression change more like KSR1 knockdown; mean distance from KSR1 profile: higher = expression change less like KSR1 knockdown.
Here is one part, drawn at random, of about 14,000 deposited reagents. 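Higher correlation or smaller distance means closer resemblance to KSR1 loss; control wells, including KSR1 knockdowns, recur on many plates.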 Not all columns of the deposit are shown. No sequences are given here. Not given: the time to read-out.

The opening 4 records, to show the layout:
no.	target gene	mean correlation with KSR1 profile	mean distance from KSR1 profile
1	BET1L	-0.377	1.82
2	MED27	-0.199	2.64
3	TRAPPC9	0.344	1.51
4	JMJD4	-0.548	1.57

The listing, repeating the preview:
no.	target gene	mean correlation with KSR1 profile	mean distance from KSR1 profile
1	BET1L	-0.377	1.82
2	MED27	-0.199	2.64
3	TRAPPC9	0.344	1.51
4	JMJD4	-0.548	1.57
5	PAGE4	-0.331	2.55
6	FMN2	-0.584	1.96
7	DCX	0.205	3.47
8	F2RL3	0.649	1.32
9	KIRREL3	-0.155	3.23
10	LEF1	0.281	1.98
11	PPP2R3A	0.177	1.85
12	NECAP2	-0.158	1.93
13	HBB	0.00316	2.59
14	NARS2	0.193	1.83
15	GDF2	-0.259	2.42
16	PDE6D	-0.468	2.09
17	RNGTT	-0.2	2.56
18	NR0B2	0.0686	1.38
19	GH2	-0.411	2.45
20	CHD6	0.81	1.21
21	GCDH	-0.267	1.73
22	HOXA6	-0.293	2.33
23	PLD3	-0.568	2.13
24	GPR18	0.624	2.09
25	BTN3A1	0.118	2.61
26	ZIC3	0.565	1.44
27	FEM1A	-0.743	1.86
28	SMG6	-0.418	1.88
29	FBXO40	0.534	1.88
30	CCNA1	0.202	1.45
31	NFIB	-0.0292	2.54
32	ATXN2L	0.312	1.4
33	PPP1R9B	0.177	4.01
34	DLL1	0.676	1.38
35	PGS1	-0.225	2.18
36	VTCN1	0.0283	2.83
37	SLC17A2	-0.53	2.01
38	PDE7A	0.00139	2.85
39	OVOL1	-0.148	1.84
40	DCLRE1A	-0.0231	2.32
41	MOCS2	0.0999	2.22
42	VIT	-0.529	1.58
43	OR3A3	0.726	2.13
44	NELFA	-0.883	2.16
45	AMPD2	-0.013	2.52
46	NTMT1	0.406	0.672
47	STYK1	-0.266	2.67
48	TMEM101	0.664	2.41
49	ACTB	-0.717	2.57
50	BET1	0.578	1.22
